Results taken from article PMC5484543.
Results are given in words; binding and its absence hold for the method and conditions named. In cells and extracts the contact can be indirect. Binding can be weak; no strength is given. Sequences can lack the tags named with a protein.

Tests used:
[1] = molecular target: T1, Erlin1*-FLAG (human) (UniProt O75477); assay: co-IP
T1 sequence: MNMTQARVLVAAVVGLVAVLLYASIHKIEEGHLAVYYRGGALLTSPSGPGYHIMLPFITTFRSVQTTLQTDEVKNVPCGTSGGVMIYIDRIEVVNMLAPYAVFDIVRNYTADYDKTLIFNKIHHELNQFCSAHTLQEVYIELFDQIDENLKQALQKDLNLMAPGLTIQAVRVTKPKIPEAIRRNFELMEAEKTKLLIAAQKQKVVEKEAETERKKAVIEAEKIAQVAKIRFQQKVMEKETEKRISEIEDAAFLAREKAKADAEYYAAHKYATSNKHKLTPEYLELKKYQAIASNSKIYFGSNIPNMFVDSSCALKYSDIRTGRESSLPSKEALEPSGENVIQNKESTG

[2] = molecular target: T2, Erlin2*-FLAG (human) (UniProt O94905); assay: co-IP
T2 sequence: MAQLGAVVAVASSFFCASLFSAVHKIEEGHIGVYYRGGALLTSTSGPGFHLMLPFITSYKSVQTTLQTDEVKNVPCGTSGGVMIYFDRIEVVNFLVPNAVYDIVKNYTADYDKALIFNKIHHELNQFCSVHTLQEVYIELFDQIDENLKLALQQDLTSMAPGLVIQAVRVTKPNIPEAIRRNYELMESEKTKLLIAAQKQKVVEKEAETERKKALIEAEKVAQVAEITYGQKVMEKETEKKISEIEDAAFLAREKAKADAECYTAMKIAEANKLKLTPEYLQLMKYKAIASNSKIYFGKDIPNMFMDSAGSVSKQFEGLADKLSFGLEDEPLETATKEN

binding [1] | binding [2] | Substance
binds | binds | B12 (endogenous, CV-1) (simian (endogenous in CV-1))
– | binds | TMUB1 (simian (endogenous in CV-1))
